Our source for the binding signal values is paper PMC7862700.

The list shows a part of the results. The source does not settle which construct or isoform was used.

The target of the experiment is T1, ETS1 (UniProt P14921).
T1 sequence: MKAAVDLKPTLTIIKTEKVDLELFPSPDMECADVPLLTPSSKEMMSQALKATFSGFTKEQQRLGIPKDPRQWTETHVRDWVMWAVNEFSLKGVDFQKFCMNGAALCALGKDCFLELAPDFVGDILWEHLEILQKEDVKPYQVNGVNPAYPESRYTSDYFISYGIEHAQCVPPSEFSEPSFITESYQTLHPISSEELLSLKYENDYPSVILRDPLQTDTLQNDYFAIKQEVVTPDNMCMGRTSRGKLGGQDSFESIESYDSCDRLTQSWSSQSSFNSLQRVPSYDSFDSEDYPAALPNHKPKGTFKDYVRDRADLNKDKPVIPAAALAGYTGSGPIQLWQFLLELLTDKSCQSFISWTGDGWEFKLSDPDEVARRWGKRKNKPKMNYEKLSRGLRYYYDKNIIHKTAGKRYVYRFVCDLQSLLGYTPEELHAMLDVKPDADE
The experiment is described as follows: DAPPL (digital affinity profiling via proximity ligation, sequencing). Conditions: 10 mM Tris-HCl pH 7.5, 50 mM NaCl, 1 mM DTT, 4% glycerol, room temperature, 30 min; GST-TFs on glutathione beads, 16-mer random dsDNA library, 0.1% …; high values mean tight binding; double strand, one strand shown; scale: fold enrichment (6-mer frequency, TF over GST control).
For the sequence ATGATG, the binding signal was 1.39. Then AACAAG, with 1.14. The value for CCCGTA was 1.22; that for TTTTGG was 1.4.

Sequence GATTTG displayed a binding signal of 1.19. In the case of CTGTAC, the binding signal worked out at 1.32. The value for GTCTCG was 1.49; that for CAACGC was 1.05; that for AATCCT was 1.29. The value for GCTTTT was 1.09. The value for ATCCTC was 1.52; that for GTTATT was 1.25. Sequence AACCAC gave a binding signal of 1.14.

For GCCCGC, the binding signal was 0.993.

GTCCCG: the binding signal was found to be 1.17. For CCTCGC, the binding signal was 1.55. Then GTTTCT, with 1.34; and CGGTAT, with 1.04. The value for CGTTCT was 1.48; that for CTACAA was 1.11. The value for TACTGT was 1.11; that for GACTCC was 1.37; that for CCGCTG was 1.07.

AATATG showed a binding signal of 1.15. The value for TGATTT was 1.23.

Consider TGATAT, for which the binding signal was 1.14. Consider CCCCGT, for which the binding signal amounted to 0.934. Turning to ATTCAT, the binding signal worked out at 1.23. AGCGAT: the binding signal came to 1.07.

As to TATTTT, the binding signal came to 1.38. The value for GATATG was 1.14; that for CGCGAT was 1.2. The value for CCGGTT was 1.87. As for CGTTAT, the binding signal was determined as 1.13. Then AGTCCC, with 1.03; and TTGGCA, with 1.22. Then AAGTTA, with 1.21; and CCCTGC, with 1.26; and AGTTAA, with 1.

Regarding GCTACG, the binding signal was 1.17.
